Data as given in PubChem BioAssay AID504808 (Drosophila RNAi Screening Center, 2011).
Assay: 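Genes whose loss lifts activity of an E2F-responsive reporter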 (primary screen). Cell system: Drosophila S2 cells. Reagents: long dsRNA against Drosophila genes. Read-out: 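Dual luciferase plate measurements; E2F-specific signal taken as firefly over Renilla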. Reading the numbers: E2F firefly: higher = more E2F reporter activity; Renilla normaliser: higher = more normaliser reporter signal. Hit rule: 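Called active if the normalised E2F reporter went up by over 50%; the cutoff is arbitrary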.
In all, the deposit lists about 21,000 reagents; shown is a random part of those with a known target gene and a result. Of all reagents, 18 (0.084%) got an active call. 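Raw counts without plate normalisation, one of two replicates; the ratio scores behind the calls were not deposited.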 Names joined by + are all predicted targets of the reagent. The record does not give: the amount of reagent, the time to read-out.

For lab (GeneID 40817) [DRSC12627], the values are E2F firefly, rep 1 = 1.13e5; Renilla normaliser, rep 1 = 5588; inactive. Against CG9997 (GeneID 43395) [DRSC16591], the entry reads E2F firefly, rep 1 = 1.30e5; Renilla normaliser, rep 1 = 7346; inactive. With knock-down of CG4714 (GeneID 36470) [DRSC06883], the record shows E2F firefly, rep 1 = 2869; Renilla normaliser, rep 1 = 243; inactive. Against CG11837 (GeneID 43429) [DRSC14397], the entry reads E2F firefly, rep 1 = 1694; Renilla normaliser, rep 1 = 1028; inactive. Against rk (GeneID 34819) [DRSC03602] the deposit lists E2F firefly, rep 1 = 97132; Renilla normaliser, rep 1 = 4326; inactive. After knock-down of Orc4 (GeneID 37970) [DRSC04634], the screen gave E2F firefly, rep 1 = 88175; Renilla normaliser, rep 1 = 2990; inactive.

COX6B (GeneID 32989) [DRSC19590] gave E2F firefly, rep 1 = 1.59e5; Renilla normaliser, rep 1 = 6289; inactive. After knock-down of ppk14 (GeneID 33887) [DRSC03238], the record shows E2F firefly, rep 1 = 1.62e5; Renilla normaliser, rep 1 = 5500; inactive. Knock-down of CG4456 + Hsp22 [DRSC11187] gave: E2F firefly, rep 1 = 1.19e5; Renilla normaliser, rep 1 = 6127; inactive. For CG4456 + Hsp22 [DRSC11192], the values are E2F firefly, rep 1 = 65628; Renilla normaliser, rep 1 = 3492; inactive. Silencing of LeuRS-m (GeneID 38581) [DRSC08595] gave: E2F firefly, rep 1 = 74130; Renilla normaliser, rep 1 = 3612; inactive. For CG8851 (GeneID 33575) [DRSC00718], the values are E2F firefly, rep 1 = 1.41e5; Renilla normaliser, rep 1 = 5164; inactive.

For mus301 (GeneID 38905) [DRSC10939], the values are E2F firefly, rep 1 = 89419; Renilla normaliser, rep 1 = 3697; inactive. CG5890 (GeneID 43126) [DRSC15909] scored E2F firefly, rep 1 = 95739; Renilla normaliser, rep 1 = 5688; inactive. CG14569 (GeneID 40417) [DRSC11730] scored E2F firefly, rep 1 = 1.48e5; Renilla normaliser, rep 1 = 6734; inactive. For CG12951 (GeneID 41110) [DRSC14579], the entry reads E2F firefly, rep 1 = 1.33e5; Renilla normaliser, rep 1 = 6649; inactive. dpr3 (GeneID 3346208) [DRSC00395] showed E2F firefly, rep 1 = 1.77e5; Renilla normaliser, rep 1 = 6098; inactive. Knock-down of dpr3 (GeneID 3346208) [DRSC00396] came out at: E2F firefly, rep 1 = 1.74e5; Renilla normaliser, rep 1 = 6227; inactive.

5 entries from above, reduced to “E2F firefly, rep 1”:
Orc4 (GeneID 37970) [DRSC04634]	88175
COX6B (GeneID 32989) [DRSC19590]	1.59e5
ppk14 (GeneID 33887) [DRSC03238]	1.62e5
CG4456 + Hsp22 [DRSC11187]	1.19e5
CG4456 + Hsp22 [DRSC11192]	65628

Continued:
Silencing of dsb (GeneID 38252) [DRSC08407] came out at: E2F firefly, rep 1 = 95306; Renilla normaliser, rep 1 = 4146; inactive. Silencing of dsb (GeneID 38252) [DRSC08542] gave: E2F firefly, rep 1 = 88391; Renilla normaliser, rep 1 = 3747; inactive. Against Kdm2 (GeneID 41090) [DRSC14286], the entry reads E2F firefly, rep 1 = 65490; Renilla normaliser, rep 1 = 3047; inactive. Vsx1 (GeneID 31470) [DRSC18349] scored E2F firefly, rep 1 = 1.12e5; Renilla normaliser, rep 1 = 4358; inactive. With knock-down of Vsx1 (GeneID 31470) [DRSC18350], the screen gave E2F firefly, rep 1 = 60402; Renilla normaliser, rep 1 = 3609; inactive. Knock-down of Pdfr (GeneID 31234) [DRSC18614] gave: E2F firefly, rep 1 = 1.06e5; Renilla normaliser, rep 1 = 6162; inactive.

CG8910 (GeneID 36896) [DRSC07414] gave E2F firefly, rep 1 = 1.34e5; Renilla normaliser, rep 1 = 5041; inactive. atlas (GeneID 37689) [DRSC04183] gave E2F firefly, rep 1 = 1.05e5; Renilla normaliser, rep 1 = 3982; inactive. Against Ir94h (GeneID 42769) [DRSC15232], the values are E2F firefly, rep 1 = 88922; Renilla normaliser, rep 1 = 5000; inactive. CG15728 (GeneID 32214) [DRSC19694] showed E2F firefly, rep 1 = 1.18e5; Renilla normaliser, rep 1 = 5326; inactive.
